According to the supplement of paper PMC3682954:
Where a name gives a salt, the structure may show the parent alone. ± gives the standard deviation of the averaged measurements. This is one part of the list. Most values come without repeats; read them as rough.

Test system: RAW 264.7
Experiment: HMGB1-induced TNF-alpha production relative to HMGB1-stimulated control; higher = more TNF-alpha secretion (less inhibition)
Details: stimulus: HMGB1 5 ug/ml, 18 h
[1] = compound concentration: 1 ug/ml

| SMILES | HMGB1-induced TNF-alpha production (compound concentration: 3 uM) [%] | HMGB1-induced TNF-alpha production [1] [%] |
| --- | --- | --- |
| C[C@@H](CN1CCC(Cc2ccccc2)CC1)[C@@H](O)c1ccc(O)cc1 [Ro 25-6981 hydrochloride] | 108 |  |
| CC1CC(OC(=O)c2ccccc2O)CC(C)(C)C1 (stereo not drawn) | 70.4 |  |
| CC1CC(OC(=O)c2ccccc2O)CC(C)(C)C1 (stereo not drawn) [Homosalate] | 125 |  |
| C[C@H](CCC(=O)O)[C@H]1CC[C@H]2[C@@H]3[C@@H](O)C[C@@H]4C[C@H](O)CC[C@]4(C)[C@H]3CC[C@]12C [Urosiol] | 108 |  |
| C[C@H](CCC(=O)O)[C@H]1CC[C@H]2[C@@H]3[C@@H](O)C[C@@H]4C[C@H](O)CC[C@]4(C)[C@H]3CC[C@]12C | 72.1 |  |
| C[C@@H](O)[C@@H]1NC(=O)[C@H](CCCCN)NC(=O)[C@@H](Cc2c[nH]c3ccccc23)NC(=O)[C@H](Cc2ccccc2)NC(=O)[C@@H](NC(=O)[C@H](N)Cc2ccccc2)CSSC[C@@H](C(=O)N[C@H](CO)[C@@H](C)O)NC1=O [Octreotide] | 89.8 |  |
| C#C[C@]1(O)CC[C@H]2[C@@H]3CCC4=CCCC[C@@H]4[C@H]3CC[C@@]21C [Lynestrenol] | 65.4 |  |
| O=C(Nc1ccncc1)c1cc([N+](=O)[O-])ccc1Cl | 113 |  |
| Cc1cc(NC(=O)Nc2ccc3c(ccn3C)c2)sn1 | 79.7 |  |
| O=C(CCCN1CCN(c2ccccn2)CC1)c1ccc(F)cc1 | 99.9 |  |
| O=C(CCCN1CCN(c2ccccn2)CC1)c1ccc(F)cc1 [Azaperone] | 108 ± 17 |  |
| Cc1cn([C@@H]2O[C@H](CO)[C@@H](O)[C@H]2O)c(=O)nc1N [5-Methylcytidine] |  | 91.7 |
| CN1CCC(=C2c3ccccc3Sc3ccccc32)CC1 [Pimethixene maleate] | 68 |  |
| CN1CCC(=C2c3ccccc3Sc3ccccc32)CC1 | 76.4 |  |
| Nc1c2ccccc2nc2ccccc12 | 52.6 |  |
| Cc1ccc(=O)n(-c2ccccc2)c1 [Pirfenidone] | 117 |  |
| N[C@@H](Cc1cc(I)c(Oc2ccc(O)c(I)c2)c(I)c1)C(=O)O [Liothyronine] | 116 |  |
| N[C@@H](Cc1cc(I)c(Oc2ccc(O)c(I)c2)c(I)c1)C(=O)O [3,3',5-Triiodo-L-thyronine] |  | 69.6 |
| N[C@@H](Cc1cc(I)c(Oc2ccc(O)c(I)c2)c(I)c1)C(=O)O | 90.4 |  |
| N[C@@H](Cc1cc(I)c(Oc2ccc(O)c(I)c2)c(I)c1)C(=O)O [LIOTHYRONINE (L- isomer) SODIUM] | 89 |  |
| Cc1ccc2oc(-c3ccccc3)cc(=O)c2c1 [6-Methylflavone] |  | 59.9 |

Eight consecutive entries already listed, quoted:

| SMILES | HMGB1-induced TNF-alpha production (compound concentration: 3 uM) [%] | HMGB1-induced TNF-alpha production [1] [%] |
| --- | --- | --- |
| Cc1cn([C@@H]2O[C@H](CO)[C@@H](O)[C@H]2O)c(=O)nc1N [5-Methylcytidine] |  | 91.7 |
| CN1CCC(=C2c3ccccc3Sc3ccccc32)CC1 [Pimethixene maleate] | 68 |  |
| CN1CCC(=C2c3ccccc3Sc3ccccc32)CC1 | 76.4 |  |
| Nc1c2ccccc2nc2ccccc12 | 52.6 |  |
| Cc1ccc(=O)n(-c2ccccc2)c1 [Pirfenidone] | 117 |  |
| N[C@@H](Cc1cc(I)c(Oc2ccc(O)c(I)c2)c(I)c1)C(=O)O [Liothyronine] | 116 |  |
| N[C@@H](Cc1cc(I)c(Oc2ccc(O)c(I)c2)c(I)c1)C(=O)O [3,3',5-Triiodo-L-thyronine] |  | 69.6 |
| N[C@@H](Cc1cc(I)c(Oc2ccc(O)c(I)c2)c(I)c1)C(=O)O | 90.4 |  |

Continued.

| SMILES | HMGB1-induced TNF-alpha production (compound concentration: 3 uM) [%] | HMGB1-induced TNF-alpha production [1] [%] |
| --- | --- | --- |
| CC(=O)/C=C1/C(=O)N(C)c2ccccc21 [Supercinnamaldehyde] | 123 |  |
| O=C(/C=C/c1ccc(O)cc1)c1ccc(O)cc1O [Isoliquiritigenin] | 101 |  |
| Cc1c(NC(=O)c2cccnc2)c(=O)n(-c2ccccc2)n1C | 91.5 |  |
| Cc1c(NC(=O)c2cccnc2)c(=O)n(-c2ccccc2)n1C [Nifenazone] | 73.9 |  |
| CS(=O)(=O)OCCCCOS(C)(=O)=O [Busulfan] | 90.6 |  |
| CS(=O)(=O)OCCCCOS(C)(=O)=O | 85.73 ± 0.27 |  |
| CC(O)Cn1cnc2c1c(=O)n(C)c(=O)n2C (stereo not drawn) | 72.5 |  |
| N[C@@H](Cc1c[nH]c2ccccc12)C(=O)O | 84.3 |  |
| N[C@@H](Cc1c[nH]c2ccccc12)C(=O)O [L-Tryptophan] | 90.9 | 58.6 |
| O=C(OOC(=O)c1ccccc1)c1ccccc1 | 78.2 |  |
| Nc1cc(=O)[nH]c(N)n1 [2,4-Diamino-6-pyrimidinone] | 95.2 |  |
| CCC1(C)OC(=O)N(C)C1=O (stereo not drawn) | 77.1 |  |
| Cc1ccc2nc(CN(CCN(Cc3nc4ccc(C)cc4[nH]3)Cc3nc4ccc(C)cc4[nH]3)Cc3nc4ccc(C)cc4[nH]3)[nH]c2c1 | 46.1 |  |
| COc1cc(OC)c2c(c1)OC(c1ccc(O)cc1)CC2=O (stereo not drawn) [4'-Hydroxy-5,7-dimethoxyflavanone] |  | 92.3 |
| NC(=O)CCCCC1CCSS1 (stereo not drawn) | 88.5 |  |
| CC(C)NC[C@@H](O)COc1ccc(CC(N)=O)cc1 [(R)-(+)-Atenolol] | 107 |  |
| NS(=O)(=O)c1cc2c(cc1C(F)(F)F)NCNS2(=O)=O [Hydroflumethiazide] | 72.3 |  |
| NS(=O)(=O)c1cc2c(cc1C(F)(F)F)NCNS2(=O)=O | 83.6 |  |
| OC[C@H]1O[C@@H](n2cnc3c(N[C@H]4CCC[C@@H]4O)ncnc32)[C@H](O)[C@@H]1O | 86.8 |  |
| COC1(C2=NCCN2)COc2ccccc2O1 (stereo not drawn) | 116 |  |
| CCn1c(=O)[nH]c2cc(Cl)c(Cl)cc21 | 88.4 |  |
